The supplement of paper PMC11348887
Counter-ions that a name gives are not always drawn. The list shows a part of the results. Most entries show no effect beyond the scatter of the controls.

Legend:
Settings in all cases: 5 µM; treatment: days 7-14 after plating, readout day 21
[1] = tested on: hPSC-derived cortical neurons (WA09); assay: nucleus area z-score vs screen plate; higher = larger nuclei (more mature)
[2] = tested on: hPSC-derived cortical neurons (WA09); assay: total neurite length per nucleus (MAP2) z-score; higher = more neurite growth
[3] = tested on: hPSC-derived cortical neurons (WA09); assay: nucleus roundness z-score vs screen plate; higher = rounder nuclei (more mature)
[4] = tested on: hPSC-derived cortical neurons (WA09); assay: KCl-induced FOS+/EGR-1+ double-positive nuclei fraction z-score (KCl minus unstimulated); higher = stronger activity-induced IEG response

| Structure (SMILES) | nucleus area z-score [1] | total neurite length per nucleus (z-score) [2] | nucleus roundness z-score [3] | KCl-induced FOS+/EGR-1+ double-positive nuclei fraction z-score [4] |
| --- | --- | --- | --- | --- |
| CCN(C)C(=O)Oc1cccc([C@H](C)N(C)C)c1 [Rivastigmine] | 0.165 | 1.15 | 0.242 | -0.00171 |
| O=C(Oc1ccc([N+](=O)[O-])cc1)N1CCC(C(O)(c2ccc3c(c2)OCO3)c2ccc3c(c2)OCO3)CC1 | -0.0244 | 0.462 | 0.332 | 0.652 |
| CC(C)N(CCNC(=O)CN1CCCC1=O)C(C)C [Pramiracetam] | 0.522 | 0.0463 | 0.0937 | 0.812 |
| CC(C)OC(=O)[C@H](C)N[P@](=O)(CO[C@H](C)Cn1cnc2c(N)ncnc21)Oc1ccccc1 [Tenofovir Alafenamide (GS-7340)] | -0.139 | 0.61 | 0.0121 | 0.156 |
| O=c1ccc2cc(O[C@@H]3O[C@H](CO)[C@@H](O)[C@H](O)[C@H]3O)c(O)cc2o1 [Esculin] | 0.185 | 0.0962 | 0.484 | 0.0257 |
| C#C[C@]1(O)C=C[C@H]2[C@@H]3CCC4=CC(=O)CC[C@@H]4[C@H]3CC[C@@]21CC [Gestodene] | 0.119 | -0.0134 | 0.0245 | -0.219 |
| Nc1nc(N)nc(NC2CC2)n1 [Cyromazine] | 0.305 | 0.693 | 0.402 | 1.14 |
| COC(=O)[C@@H](N)CCCNC(=N)N[N+](=O)[O-] | 0.558 | -0.499 | -1.22 | -0.253 |
| CC(=O)Nc1ccc(Cc2ccc(NC(C)=O)cc2)cc1 | 0.287 | -0.111 | -0.0295 | 0.377 |
| O=C(O)C(=O)c1cn(Cc2ccccc2)c2ccc(-c3ccc(OC(F)(F)F)cc3)cc12 [Tiplaxtinin (PAI-039)] | -0.363 | -0.0224 | -0.0668 | -0.533 |
| COc1ccc(C(CN(C)C)C2(O)CCCCC2)cc1 (centres undefined) [Venlafaxine] | -0.717 | 0.0798 | -0.46 | -0.179 |
| CCN(Cc1ccc(Cl)nc1)/C(=C/[N+](=O)[O-])NC [Nitenpyram] | 1.13 | 0.843 | 0.28 | 0.487 |
| Cn1c(COP(=O)(NCCBr)NCCBr)cnc1[N+](=O)[O-] | -0.331 | 1.85 | 1.27 | 0.399 |
| C=CCN1CC[C@]23c4c5ccc(O)c4O[C@H]2C(=O)CC[C@@]3(O)[C@H]1C5 [Naloxone HCl] | 0.104 | 0.157 | 0.864 | 0.342 |
| Cc1sc2c(c1C)C(c1ccc(Cl)cc1)=N[C@@H](CC(=O)Nc1ccc(O)cc1)c1nnc(C)n1-2 | -5.68 | -2.53 | -5.28 | -1.89 |
| CCCN1C[C@H](CSC)C[C@@H]2c3cccc4[nH]cc(c34)C[C@H]21 [Pergolide mesylate] | -0.917 | -1.02 | -0.0535 | 0.162 |
| O.O.O.O=C([O-])C1[O][Sb]2[O]C(=O)C([O]2)C(C(=O)[O-])[O][Sb]2[O]C(=O)C1[O]2.[K+].[K+] (centres undefined) [Antimonyl potassium tartrate trihydrate] | -11.5 | -5.24 | -7.07 | -0.642 |
| C[N+](C)(C)CCCCCCCCCC[N+](C)(C)C [Decamethonium Bromide] | 0.285 | 0.553 | 0.277 | 0.378 |
| CN1CCCCC1Cn1cc(C(=O)c2cc([N+](=O)[O-])ccc2I)c2ccccc21 (centres undefined) | -0.193 | -1.4 | -2.38 | -1.48 |
| NC(=O)C[S@@+]([O-])C(c1ccccc1)c1ccccc1 [Armodafinil] | 0.689 | 0.249 | 1.11 | 2.21 |
| N=C(N)NN [Aminoguanidine hydrochloride] | 0.19 | -0.198 | -0.329 | 1.03 |
| O=C1CCC[C@@H]2[C@H]3CCCN4CCC[C@@H](CN12)[C@@H]34 [(+)-Matrine] | 0.335 | 0.704 | 0.398 | -0.451 |
| C[C@]12CC[C@H](O)C[C@@H]1CC[C@@H]1[C@@H]2CC[C@]2(C)C(=O)CC[C@@H]12 [Epiandrosterone] | -0.13 | -0.359 | -0.187 | 0.459 |
| O=c1cccc2n1C[C@@H]1CNC[C@H]2C1 [Cytisine] | 1.82 | -1.88 | -1.39 | -1.09 |
| CCC1(C)CC(=O)NC(=O)C1 [Bemegride] | 0.124 | 0.293 | -0.151 | -0.0953 |
| CC(C)(C)[C@]1(O)CC2OC(=O)CC23C(=O)OC2OC(=O)[C@H](O)C231 (some centres undefined) [Bilobalide] | 0.391 | 0.0272 | 0.188 | 1.84 |

Some of the entries so far, bar-delimited:
Structure (SMILES) | nucleus area z-score [1] | total neurite length per nucleus (z-score) [2] | nucleus roundness z-score [3] | KCl-induced FOS+/EGR-1+ double-positive nuclei fraction z-score [4]
COc1ccc(C(CN(C)C)C2(O)CCCCC2)cc1 (centres undefined) [Venlafaxine] | -0.717 | 0.0798 | -0.46 | -0.179
CCN(Cc1ccc(Cl)nc1)/C(=C/[N+](=O)[O-])NC [Nitenpyram] | 1.13 | 0.843 | 0.28 | 0.487
